Part of at least one peptide drawing is inferred or uncertain, most often the ends. Some entries share one result that the patent states for a list of compounds. Numbered stars: 1 amine (or outer) side, 2 acyl side, 3 side chain; on linkers, the order of the positions; unused ones are H or OH. Bridge positions count the residues as written; N and C are the ends. Square brackets hold non-standard residues; d marks the D form. Peptide text beside a SMILES is read from it. * marks the point of attachment. Biotin = O=C1N[C@H]2[C@H](CS[C@H]2CCCCC(=O)*)N1; X1 = O=C(CCCc1cn(CCOCCOCCOCCN[*:1])nn1)[*:2]; Agb = N=C(N)NCC[C@H](N)C(=O)O; Dab = NCC[C@H](N)C(=O)O
Assays:
Format in all cases: cell-based, Chinese hamster
[1] = tested on: CHO-K1 cells; assay: Cytoplasmic delivery of streptavidin-saporin, CellTiter-Blue viability; settings: for LD50 of transporter-streptavidin-saporin conjugate: CHO-K1, four days at 37° C., FIG. 8; for Cell death by saporin without streptavidin incubated with transporter: CHO-K1, four days, FIG. 9A
Protocol: The biotinylated transporters were incubated with ST-Sap in a 5:1 molar ratio for 20 min at ambient temperature then diluted with F-12 cell culture medium to give final conjugate solutions. CHO-K1 and pgsA cells were incubated with 100 μL of the corresponding conjugate for 4 days at 37° C. under an atmosphere of 5% CO2. CellTiter-Blue (20 μL) was added to the medium and incubated for an additional 4 h to measure viability.
The ability of bPMB and bGPMB to deliver cargo to the cytosol was evaluated by conjugating the transporter to streptavidin-saporin (ST-SAP) and incubating the conjugate with CHO-K1 or pgsA cells at various concentrations. CHO-K1 cells were incubated with transporter-streptavidin-saporin conjugates at 37° C.
Saporin (no streptavidin) was incubated with bPMB or bGPMB for 20 min then diluted to final saporin concentrations and added to CHO-K1 cells. After four days, the number of viable cells was determined using CellTiter-Blue assay and the fluorescence intensity at was measured at 560/590 (FIG. 9A). pgsA cells were incubated with transporter-streptavidin-saporin conjugates at 37° C. After four days, the number of viable cells was determined using CellTiter-Blue and fluorescence intensity was measured at 560/590 (FIG. 9B).

[2] = tested on: CHO-K1 cells and pgsA-745 cells; assay: Cell-surface binding (EDTA versus EDTA/trypsin lifting); settings: ST-PE-Cy5 conjugates 5 nM, 37° C., 1 h, FIG. 1C; for Share of the signal accounted for by cell-surface binding: EDTA only minus EDTA/trypsin
[3] = tested on: CHO-K1 cells; assay: Mechanisms of uptake (4° C. and endocytosis inhibitors); settings: for Effect of low temperature (4° C.) on internalization: ST-PE-Cy5 conjugate 5 nM, CHO-K1, FIG. 1D; for Effect of amiloride on cellular uptake: amiloride 5 mM, 10 min pretreatment; for Effect of amiloride on cellular uptake / Effect of chlorpromazine on cellular uptake / Reduction of cellular uptake by genistein / Reduction of cellular uptake by nystatin / Effect of sucrose on cellular uptake: conjugate 5 nM, 1 h at 37° C.; for Effect of chlorpromazine on cellular uptake: chlorpromazine 20 μM; for Effect of chlorpromazine on cellular uptake / Effect of sucrose on cellular uptake: 30 min pretreatment; for Reduction of cellular uptake by genistein: genistein 200 μM; for Reduction of cellular uptake by nystatin: nystatin 5 μM; for Effect of sucrose on cellular uptake: sucrose 400 mM
[4] = tested on: CHO-K1 cells; assay: Intracellular localization by confocal laser scanning microscopy; settings: ST-Cy5 conjugate 20 nM, 1 h at 37° C., n=30
[5] = tested on: mutant CHO cell lines pgsA-745 and pgsD-677; assay: Cellular uptake in heparan sulfate-deficient mutant CHO cell lines; settings: ST-PE-Cy5 conjugates 5 nM, 1 h at 37° C., EDTA/trypsin, FIG. 1B

Structure (SMILES) | LD50 of transporter-streptavidin-saporin conjugate [1] [nM] | Cell death by saporin without streptavidin incubated with transporter [1] | Share of the signal accounted for by cell-surface binding [2] | Binding in CHO-K1 cells compared to mutant pgsA-745 cells [2] | Effect of low temperature (4° C.) on internalization [3] | Effect of amiloride on cellular uptake [3] | Effect of chlorpromazine on cellular uptake [3] | Reduction of cellular uptake by genistein [3] | Reduction of cellular uptake by nystatin [3] | Effect of sucrose on cellular uptake [3] | Pearson's correlation of co-localization with LysoTracker-stained compartments [4] | Uptake in HS-deficient cell lines relative to wild-type cells [5] [%]
CC(C)C[C@@H]1NC(=O)[C@@H](Cc2ccccc2)NC(=O)[C@H](CCNC(=N)N)NC(=O)[C@@H](NC(=O)[C@H](CCNC(=N)N)NC(=O)[C@@H](NC(=O)[C@H](CCNC(=N)N)NC(=O)CCCc2cn(CCOCCOCCOCCNC(=O)CCCC[C@@H]3SC[C@@H]4NC(=O)N[C@@H]43)nn2)[C@@H](C)O)CCNC(=O)[C@H]([C@@H](C)O)NC(=O)[C@H](CCNC(=N)N)NC(=O)[C@H](CCNC(=N)N)NC1=O [bGPMB, biotinylated guanidinylated polymyxin B] (Biotin-[X1][Agb]T[Agb][Dab][Agb][dF]L[Agb][Agb]T; lactam 5-C) | 3.3 | unable to induce cell death | about 15% | Greater binding | practically abolished internalization | did not affect | did not affect | 50-60% | 50-60% | did not affect | 0.62 | < 20
CC(C)C[C@@H]1NC(=O)[C@@H](Cc2ccccc2)NC(=O)[C@H](CCN)NC(=O)[C@@H](NC(=O)[C@H](CCN)NC(=O)[C@@H](NC(=O)[C@H](CCN)NC(=O)CCCc2cn(CCOCCOCCOCCNC(=O)CCCC[C@@H]3SC[C@@H]4NC(=O)N[C@@H]43)nn2)[C@@H](C)O)CCNC(=O)[C@H]([C@@H](C)O)NC(=O)[C@H](CCN)NC(=O)[C@H](CCN)NC1=O [bPMB, biotinylated polymyxin B] (Biotin-[X1][Dab]T[Dab][Dab][Dab][dF]L[Dab][Dab]T; lactam 5-C) | 3.1 | unable to induce cell death | about 15% | Greater binding | practically abolished internalization | did not affect | did not affect | 50-60% | 50-60% | did not affect | 0.62 | < 20

— US10449230B2, “Polymyxin derived cell penetrating scaffolds” (The Regents of the University of California, priority 2016, dated 2019)
